In PubChem BioAssay AID1347076 (National Center for Advancing Translational Sciences (NCATS), 2019):
Out of some 400,000 compounds screened, about 13,000 (3.2%) were called active. Inconclusive means that the source gave no clear call. Such entries were picked first, then a sample of the others. Calls come from the whole dose curve; as a rule, active = well fitted cell-killing curve with a large enough effect; inconclusive = small, poorly fitted or top-dose-only effect, or effect the other way; inactive = flat fitted curve, though single readings scatter. Where the call is inconclusive, the potency comes from a doubtful curve fit.

Experiment: qHTS assay for MDR1-selective chemotherapeutics: Primary screen using the drug-selected MDR subline cells KB-V1; note: nearly all actives have a fitted effect of over 60% in size
Details: KB-V1 MDR cells viability, CellTiter-Glo, 72 h; activity change, negative = cytotoxicity: at 46.1 µM (top of the series)
In short: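 KB-V1 cells (P-gp-expressing MDR subline of KB-3-1) in phenol-red-free DMEM with 10% FBS were exposed to library compounds over a concentration series for 72 h at 37 degrees C. Viability read by CellTiter-Glo luminescence; concentration-effect curves fitted after normalization.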
% is set by controls: 0 for no effect and ±100 for the full control effect; potency is the fitted concentration of half-maximal effect.

**Q.** With `Cc1ccc(C(=O)N(C)c2nnc(-c3ccncc3)s2)cc1` as the compound, how does the Potency read?
**A.** inconclusive: 18.4 µM [cytotoxic, partial curve, poor fit]

**Q.** Which Potency does the source give for `COc1ccc(-n2c(Cc3cccn3C)nnc2SCC(=O)Nc2ccc(C)cc2C)cc1` here?
**A.** inconclusive: 2.06 µM [cytotoxic, full curve, poor fit]

**Q.** Which Potency does the source give for `O=C(Nc1nccs1)C(Br)C(Br)c1ccccc1` (configuration not stated) here?
**A.** inconclusive: 29.1 µM [cytotoxic, single point]

**Q.** Which Potency does the source give for `O=C(CSc1nc2ccccc2[nH]1)NCc1ccco1` here?
**A.** inactive

**Q.** With `COc1cc(-c2noc(C)c2C(=O)NCCc2c[nH]c3ccccc23)cc(OC)c1OC` as the compound, how does the Potency read?
**A.** inconclusive: 8.2 µM [cytotoxic, partial curve]

**Q.** For `O=C(CN(C(=O)CCC(=O)Nc1ccccn1)c1cccc(F)c1)NCc1ccco1`, which Potency is on record?
**A.** inconclusive: 29.1 µM [cytotoxic, single point]

**Q.** With `O=C(CSc1nnc(NC(=O)c2c(F)cccc2F)s1)NCc1ccccc1` as the compound, how does the Potency read?
**A.** inconclusive: 29.1 µM [rising, single point]

**Q.** For `C/C(=N\Nc1ccccc1Cl)c1ccc(-n2ccnc2)cc1`, which Potency is on record?
**A.** inconclusive: 20.6 µM [cytotoxic, single point]

**Q.** For `Cc1cc(C(C)(C)C)c(OC(=O)[C@@H]2OC(c3ccccc3)=C[C@H]2c2ccccc2)c(C(C)(C)C)c1`, which Potency is on record?
**A.** inconclusive: 32.6 µM [rising, single point]

**Q.** For `COc1ccc(NC(=S)NN(C)C(=S)Nc2ccc(OC)cc2)cc1`, which Potency is on record?
**A.** inconclusive: 23.1 µM [cytotoxic, single point]

**Q.** For `COc1ccc(-n2c(C)cc(C(=O)CCl)c2C)cc1`, which Potency is on record?
**A.** inconclusive: 20.6 µM [cytotoxic, single point]

**Q.** For `CCCn1c2ccc(C)cc2c2n[nH]c(=S)nc21`, which Potency is on record?
**A.** inactive

**Q.** With `OC(Cc1cccnc1)c1ccccc1` (configuration not stated) as the compound, how does the Potency read?
**A.** inactive

**Q.** Which Potency does the source give for `O=C1Cc2cc(NS(=O)(=O)c3ccc(Cl)cc3)cc3c2N1CCC3` here?
**A.** inconclusive: 20.6 µM [cytotoxic, single point]

**Q.** With `Cc1cccc(-c2noc(CN(C(=O)COc3ccc(Br)cc3C)C(C)C)n2)c1` as the compound, how does the Potency read?
**A.** inactive

**Q.** Which Potency does the source give for `O=S(=O)(NC1CCCC1)c1ccc(S(=O)(=O)N2CCCN(Cc3ccccc3)C2)cc1` here?
**A.** inconclusive: 29.1 µM [cytotoxic, single point]

**Q.** Which Potency does the source give for `COc1ccccc1CNC(=O)C(=O)NCC(c1ccco1)S(=O)(=O)c1cccs1` (configuration not stated) here?
**A.** inactive

**Q.** With `CCc1ccc(CCC(=O)Nc2sc3c(c2C#N)CCCC3)o1` as the compound, how does the Potency read?
**A.** inconclusive: 3.26 µM [cytotoxic, partial curve, poor fit]

**Q.** With `CCOc1ccc(NC(=O)C(NS(=O)(=O)c2cccc3nsnc23)c2ccccc2)cc1` (configuration not stated) as the compound, how does the Potency read?
**A.** inactive

**Q.** For `COc1cccc(N=Nc2ccc3ccccc3c2O)c1`, which Potency is on record?
**A.** inactive

**Q.** Which Potency does the source give for `COc1ccccc1NC(=O)C1=C(C)Nc2nc3ccccc3n2C1c1cccs1` (configuration not stated) here?
**A.** active: 5.8 µM

**Q.** For `CC(=O)c1ccc(OCc2ccc(Oc3c(Cl)cccc3[N+](=O)[O-])cc2)cc1`, which Potency is on record?
**A.** inconclusive: 14.6 µM [cytotoxic, partial curve]

**Q.** With `O=C(NC1CCCCC1)c1cc2c(Cl)nc3ccccc3c2s1` as the compound, how does the Potency read?
**A.** inconclusive: 8.2 µM [rising, partial curve, poor fit]

**Q.** With `Cc1ccc2oc(/N=C(\N)NC(=O)C3CC3)nc2c1` as the compound, how does the Potency read?
**A.** active: 5.17 µM

**Q.** Which Potency does the source give for `Cc1cc(C)nc(NC(=O)c2ccc(COc3ccccc3Cl)cc2)c1` here?
**A.** inactive

**Q.** With `O=C(/C=C/c1ccccc1Cl)c1ccc(O)cc1` as the compound, how does the Potency read?
**A.** inconclusive: 13 µM [cytotoxic, partial curve, poor fit]

**Q.** For `Cc1ccc(/C=C2\SC(=S)N(CCC(=O)NCCCN3CCOCC3)C2=O)cc1`, which Potency is on record?
**A.** inactive

**Q.** With `O=C1c2ccccc2C(c2nnnn2Cc2ccccc2)N1CCOc1ccccc1` (configuration not stated) as the compound, how does the Potency read?
**A.** inconclusive: 20.6 µM [cytotoxic, single point]

**Q.** For `Cc1ccc(C)c(N2CCN(c3cnn(-c4nc5ccccc5s4)c(=O)c3Cl)CC2)c1`, which Potency is on record?
**A.** inactive

**Q.** For `CC(C)Nc1nc(NC2CCCC2)nc(N2CCOCC2)n1`, which Potency is on record?
**A.** inconclusive: 8.2 µM [cytotoxic, partial curve]

**Q.** Which Potency does the source give for `Cc1cccc(NC(=O)c2cccc(S(=O)(=O)N(C)c3ccccc3)c2)n1` here?
**A.** active: 7.31 µM

**Q.** Which Potency does the source give for `CCn1c(=O)n(CC)c2cc(N3CCCCC3)c(NC(=O)Nc3cc(C)cc(C)c3)cc21` here?
**A.** inconclusive: 18.4 µM [cytotoxic, single point]

**Q.** With `COc1ccc(OCC(O)CN2CCN(Cc3ccc4c(c3)OCO4)CC2)cc1` (configuration not stated) as the compound, how does the Potency read?
**A.** inconclusive: 29.1 µM [cytotoxic, single point]

**Q.** For `Cc1onc(C(=O)Nc2sc3c(c2C#N)CCCC3)c1[N+](=O)[O-]`, which Potency is on record?
**A.** inconclusive: 29.1 µM [rising, single point]

**Q.** Which Potency does the source give for `CCOc1cc(-c2nc3ccccc3s2)ccc1O` here?
**A.** inconclusive: 25.9 µM [cytotoxic, single point]

**Q.** Which Potency does the source give for `O=C(CCc1ccccc1)c1nnc(-c2ccccc2)o1` here?
**A.** inactive

**Q.** Which Potency does the source give for `Cc1cc(-c2n[nH]c(=S)n2/N=C/C(Br)=C/c2ccccc2)n[nH]1` here?
**A.** active: 10.3 µM

**Q.** With `CCCOc1ccccc1OCC(=O)Nc1cc(Cl)ccc1-n1cncn1` as the compound, how does the Potency read?
**A.** inconclusive: 7.31 µM [cytotoxic, partial curve]

**Q.** For `CC(=O)N1CC2(CC(c3ccccc3F)=NO2)CN1c1ccc(Cl)cc1` (configuration not stated), which activity change, negative = cytotoxicity is on record?
**A.** inconclusive: 8.95%

**Q.** With `CCOC(=O)C1CCCN(CC(O)COCc2ccccc2OC)C1` (configuration not stated) as the compound, how does the Potency read?
**A.** inactive

**Q.** Which Potency does the source give for `CN=C1SC(CC(=O)Nc2cccc(C(F)(F)F)c2)C(=O)N1C` (configuration not stated) here?
**A.** active: 14.6 µM

**Q.** Which Potency does the source give for `COc1ccc(CC(=O)Nc2cccc(-c3csc(C)n3)c2)cc1` here?
**A.** inconclusive: 18.4 µM [cytotoxic, single point]

**Q.** Which Potency does the source give for `CCSc1nc2c(c(=O)[nH]c(=O)n2C)n1CC(O)COc1ccccc1C` (configuration not stated) here?
**A.** active: 18.4 µM

**Q.** For `COc1ccccc1C=NNC(=O)c1ccccc1OCCOc1ccccc1`, which Potency is on record?
**A.** inconclusive: 29.1 µM [cytotoxic, single point]

**Q.** Which Potency does the source give for `c1ccc2nc(-c3nc4ccccc4[nH]3)ccc2c1` here?
**A.** inconclusive: 5.17 µM [cytotoxic, full curve]

**Q.** For `O=C(Nc1nc(-c2cccs2)cs1)C1CC(=O)N(c2ccc3c(c2)OCCO3)C1` (configuration not stated), which Potency is on record?
**A.** inactive

**Q.** For `N#CCCN(Cc1cccnc1)S(=O)(=O)c1ccc(S(=O)(=O)NC2CCCCC2)cc1`, which Potency is on record?
**A.** inconclusive: 25.9 µM [cytotoxic, partial curve, poor fit]
